PubChem BioAssay AID1259405, NCATS, 2018

Assay: 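Knock-downs that lift recombinant protein yield in hamster ovary cells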 (primary screen)
Cells: Chinese hamster CHO-K1 ovary cells with stable secreted eGFP expression
Reagents: single siRNA against mouse genes, 0.8 pmol siRNA per well (2 µl of 400 nM stock)
Duration: 3 days
Detection: 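Per-well intracellular GFP measured by laser scanning cytometry, plus viability from ATP luminescence, each relative to plate median of non-targeting control wells, in %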
Reading the numbers: GFP, % of control: higher = more GFP per well, higher productivity; viability (ATP), % of control: higher = more viable cells (more ATP)
Active means: 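Called active when intracellular GFP, relative to negative control, is at or above 120%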
The deposit covers about 50,000 reagents; this is an unselected part. In the full data, about 4,000 (8%) are marked active. 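Mouse siRNA library applied to hamster cells; one well for each siRNA.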 The numbers tell different reagents against one gene apart.

Nup50l (nucleoporin 50 like) #1 → GFP, % of control: 67; viability (ATP), % of control: 79.6; Call: inactive
Nup50l (nucleoporin 50 like) #2 → GFP, % of control: 96.5; viability (ATP), % of control: 63.8; Call: inactive
Nup50l (nucleoporin 50 like) #3 → GFP, % of control: 64.9; viability (ATP), % of control: 53.1; Call: inactive
Calb2 (calbindin 2) #1 → GFP, % of control: 101; viability (ATP), % of control: 121; Call: inactive
Calb2 (calbindin 2) #2 → GFP, % of control: 83.9; viability (ATP), % of control: 71.4; Call: inactive
Sf3b3 (splicing factor 3b, subunit 3) #1 → GFP, % of control: 93.8; viability (ATP), % of control: 76; Call: inactive
Sf3b3 (splicing factor 3b, subunit 3) #2 → GFP, % of control: 125; viability (ATP), % of control: 101; Call: active
Usp17lb (ubiquitin specific peptidase 17-like B) #1 → GFP, % of control: 115; viability (ATP), % of control: 99.2; Call: inactive
Usp17lb (ubiquitin specific peptidase 17-like B) #2 → GFP, % of control: 174; viability (ATP), % of control: 95.2; Call: active
Usp17lb (ubiquitin specific peptidase 17-like B) #3 → GFP, % of control: 67.8; viability (ATP), % of control: 61.1; Call: inactive
Adam1b (a disintegrin and metallopeptidase domain 1b) #1 → GFP, % of control: 48.7; viability (ATP), % of control: 22.5; Call: inactive
Adam1b (a disintegrin and metallopeptidase domain 1b) #2 → GFP, % of control: 83.3; viability (ATP), % of control: 92.8; Call: inactive
Adam1b (a disintegrin and metallopeptidase domain 1b) #3 → GFP, % of control: 81.6; viability (ATP), % of control: 94.1; Call: inactive
Tctn2 (tectonic family member 2) #1 → GFP, % of control: 99.6; viability (ATP), % of control: 80.4; Call: inactive
Tctn2 (tectonic family member 2) #2 → GFP, % of control: 76.9; viability (ATP), % of control: 77.7; Call: inactive
Tctn2 (tectonic family member 2) #3 → GFP, % of control: 55.6; viability (ATP), % of control: 72.2; Call: inactive
Sec61a2 (SEC61 translocon subunit alpha 2) #1 → GFP, % of control: 54.7; viability (ATP), % of control: 51.6; Call: inactive
Sec61a2 (SEC61 translocon subunit alpha 2) #2 → GFP, % of control: 124; viability (ATP), % of control: 80.8; Call: active
Sec61a2 (SEC61 translocon subunit alpha 2) #3 → GFP, % of control: 85.5; viability (ATP), % of control: 88.4; Call: inactive

Next part; the last 3 above are carried over.
Sec61a2 (SEC61 translocon subunit alpha 2) #1 → GFP, % of control: 54.7; viability (ATP), % of control: 51.6; Call: inactive
Sec61a2 (SEC61 translocon subunit alpha 2) #2 → GFP, % of control: 124; viability (ATP), % of control: 80.8; Call: active
Sec61a2 (SEC61 translocon subunit alpha 2) #3 → GFP, % of control: 85.5; viability (ATP), % of control: 88.4; Call: inactive
Pbx1 (pre B cell leukemia homeobox 1) #1 → GFP, % of control: 60.1; viability (ATP), % of control: 64.4; Call: inactive
Pbx1 (pre B cell leukemia homeobox 1) #2 → GFP, % of control: 101; viability (ATP), % of control: 66.3; Call: inactive
Pbx1 (pre B cell leukemia homeobox 1) #3 → GFP, % of control: 94.1; viability (ATP), % of control: 107; Call: inactive
Or52s1 (olfactory receptor family 52 subfamily S member 1) #1 → GFP, % of control: 123; viability (ATP), % of control: 60.5; Call: active
Or52s1 (olfactory receptor family 52 subfamily S member 1) #2 → GFP, % of control: 71.1; viability (ATP), % of control: 70.2; Call: inactive
Or52s1 (olfactory receptor family 52 subfamily S member 1) #3 → GFP, % of control: 31.7; viability (ATP), % of control: 81.6; Call: inactive
Or9q1 (olfactory receptor family 9 subfamily Q member 1) #1 → GFP, % of control: 102; viability (ATP), % of control: 64.4; Call: inactive
Or9q1 (olfactory receptor family 9 subfamily Q member 1) #2 → GFP, % of control: 89.1; viability (ATP), % of control: 97.9; Call: inactive
Or9q1 (olfactory receptor family 9 subfamily Q member 1) #3 → GFP, % of control: 56.5; viability (ATP), % of control: 56.8; Call: inactive
Snw1 (SNW domain containing 1) #1 → GFP, % of control: 84.8; viability (ATP), % of control: 85.2; Call: inactive
Snw1 (SNW domain containing 1) #2 → GFP, % of control: 89.8; viability (ATP), % of control: 53.2; Call: inactive
Or51l14 (olfactory receptor family 51 subfamily L member 14) #1 → GFP, % of control: 63.7; viability (ATP), % of control: 54.6; Call: inactive
Or51l14 (olfactory receptor family 51 subfamily L member 14) #2 → GFP, % of control: 83; viability (ATP), % of control: 80.8; Call: inactive
Or51l14 (olfactory receptor family 51 subfamily L member 14) #3 → GFP, % of control: 63.3; viability (ATP), % of control: 65.9; Call: inactive
Adh5 (alcohol dehydrogenase 5 (class III), chi polypeptide) #1 → GFP, % of control: 70.8; viability (ATP), % of control: 58.9; Call: inactive
Adh5 (alcohol dehydrogenase 5 (class III), chi polypeptide) #2 → GFP, % of control: 94.9; viability (ATP), % of control: 52.9; Call: inactive
Adh5 (alcohol dehydrogenase 5 (class III), chi polypeptide) #3 → GFP, % of control: 54.7; viability (ATP), % of control: 72.8; Call: inactive
Lef1 (lymphoid enhancer binding factor 1) #1 → GFP, % of control: 86.3; viability (ATP), % of control: 124; Call: inactive
Lef1 (lymphoid enhancer binding factor 1) #2 → GFP, % of control: 145; viability (ATP), % of control: 73.1; Call: active
Lef1 (lymphoid enhancer binding factor 1) #3 → GFP, % of control: 52.1; viability (ATP), % of control: 53.5; Call: inactive
Mapk3 (mitogen-activated protein kinase 3) → GFP, % of control: 85.9; viability (ATP), % of control: 96.1; Call: inactive
